The text below walks through data of patent US20180002444A1 (ROCKEFELLER UNIVERSITY, published 2018).

These are yes or no findings as the source states them, for the method shown. Some entries that bind do so weakly or less than the wild type.

In one assay the target is T1, recombinant human MERTK (human, UniProt Q12866 26-499, limits assumed).
T1 construct: Analyte in solution in biolayer interferometry; also called hMer
T1 sequence: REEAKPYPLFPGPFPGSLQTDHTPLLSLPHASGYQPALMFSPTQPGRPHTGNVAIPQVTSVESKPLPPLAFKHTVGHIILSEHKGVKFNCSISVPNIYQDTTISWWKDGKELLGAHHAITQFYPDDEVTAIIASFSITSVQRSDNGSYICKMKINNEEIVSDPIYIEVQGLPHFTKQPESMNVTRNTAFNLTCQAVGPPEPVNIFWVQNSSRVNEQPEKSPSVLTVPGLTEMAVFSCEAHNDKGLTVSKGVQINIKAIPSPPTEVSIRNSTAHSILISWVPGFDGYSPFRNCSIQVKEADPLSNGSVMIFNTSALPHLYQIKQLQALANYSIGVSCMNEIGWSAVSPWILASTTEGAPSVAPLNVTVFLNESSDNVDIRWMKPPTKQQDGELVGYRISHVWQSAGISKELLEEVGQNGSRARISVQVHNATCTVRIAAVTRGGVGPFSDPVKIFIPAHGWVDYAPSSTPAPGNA
Kind of assay: biolayer interferometry.

Assay [1] deals with T2, recombinant mouse MERTK (mouse) (UniProt Q60805).
T2 sequence (looked up): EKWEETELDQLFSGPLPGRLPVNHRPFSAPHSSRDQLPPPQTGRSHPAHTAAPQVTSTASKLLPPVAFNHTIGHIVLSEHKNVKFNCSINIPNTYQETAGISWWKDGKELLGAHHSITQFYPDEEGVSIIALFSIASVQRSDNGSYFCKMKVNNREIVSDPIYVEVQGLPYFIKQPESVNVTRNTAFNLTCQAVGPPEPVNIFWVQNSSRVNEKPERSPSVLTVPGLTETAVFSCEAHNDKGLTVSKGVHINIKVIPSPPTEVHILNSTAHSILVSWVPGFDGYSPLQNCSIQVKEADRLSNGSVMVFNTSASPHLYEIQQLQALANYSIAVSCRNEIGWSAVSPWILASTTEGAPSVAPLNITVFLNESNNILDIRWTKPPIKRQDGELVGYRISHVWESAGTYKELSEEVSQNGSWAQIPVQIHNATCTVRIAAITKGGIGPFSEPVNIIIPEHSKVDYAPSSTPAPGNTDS
Kind of assay: biolayer interferometry.

B1: antibody M6 (antibody, V domains shown)
VH: QVKLEESGPELKKPGETVKISCKASGYTFTNYGMNWVKQAPGKGLKWMGWINTYTGEPTYADDFKGRFVFSLETSASTAYLQINNLKNEDMATYFCARKSTVVSRYFDVWGAGTTVTVSS
VL: DIVLTQTHKFMSTSVGDRVSITCKASQDVGDAVTWCQQKPGQPPKLLIYWASTRHTGVPDRFTGSGSGTDFTLTINNVQSEDLADYFCQQYRSYPLTFGAGTKLELKR
notes: mouse hybridoma monoclonal antibody; also called Mer-M6
On to B1, for which the binding result with recombinant human MERTK is “binds”.

B2: antibody M19 (antibody, V domains shown)
VH: EVQLEESGPDLKKPGETVKISCKASNYTFTDYSMHWVKQAPGKGLKWVGWINTDTGEPTYADDFKGRFAFSLETSASTAYLQINNLKNEDTATYFCARWFGAMDYWGQGTSVTVSS
VL: DIVITQSHKFMSTSVGDRVSITCKASQDVTNVVAWYQQKPGQSPKLLIYSASYRYTGVPDRFTGSGSGTDFTFTISSVQAEDLAVYYCQQYYRTPRTFGGGTKLEIKR
notes: mouse hybridoma monoclonal antibody; also called Mer-M19
As for B2, the binding result (with recombinant human MERTK; in assay [1]) was “binds” throughout.
